In paper PMC3745031 (Bioorganic & medicinal chemistry letters, 2012):

Test system: HDAC activity of HeLa cell lysates
Conditions: read-out: IC50, HDAC inhibition, mean of at least three experiments with standard error

## O=C(CCCCCCC(=O)Nc1ccccc1)NO [SAHA, Suberoylanilide hydroxamic acid]
  IC50: 86 ± 4 nM
